A short description of the test: qHTS Assay for Lipid Storage Modulators in Drosophila S3 Cells.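 For cell number change: cells counted by Cell Tracker Red CMTPX staining in the red channel.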 The settings on record: BODIPY lipid droplet fluorescence, 18-24 h; for cell number change: measured here: cell count max response, cells fed with added oleic acid. In outline: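 Drosophila S3 cells loaded with oleic acid (400 uM, as added) and compounds at several concentrations; lipid droplets imaged by 488-nm laser-scanning cytometry, 500–530 nm intensity and object ratio to cell channel. Percent activity normalized to 20 uM Triacsin C.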
(Quantitative high-throughput screening tests each substance at several concentrations.)

[1] abbreviates: measured here: cell number channel AC50, cells fed with added oleic acid.
The mark [2] stands for this setting: measured here: lipid fluorescence (Fed channel) AC50, cells fed with added oleic acid.

The record followed here is PubChem BioAssay AID2685 (National Center for Advancing Translational Sciences (NCATS), 2010).

The other results are listed elsewhere or left out. These are further read-outs of the screen, such as a control signal, another cell line or another target. No call is given for them. The list favours compounds with an active or inconclusive main result. The note in brackets gives the kind of curve behind each potency; many fits are weak.

`COc1ccccc1-n1ccnc1SCC(=O)NCC1CCCO1` (stereo unspecified): the cell number change came out at 37.3%. Moreover, the AC50 under setting [1] is 13 µM [rising, partial curve, poor fit].

Turning to `O=C(O)c1cccc(Nc2cc(Cl)c3nonc3c2[N+](=O)[O-])c1`, the cell number change was found to be 26.6%.

On to `COC(=O)c1cc(OC)nc2c1c(=O)n(C)c(=O)n2C`, for which the cell number change was -23.1%. In addition, the AC50 under setting [2] was 0.58 µM [falling, full curve, poor fit].

As to `COc1ccc(N2CCN(CC(=O)Nc3cc(C)cc(C)c3)CC2)cc1`, the cell number change came to 2.35%. Further, the AC50 under setting [2] was 18.4 µM [falling, single point].

For `COc1cccc(CNc2ccc([N+](=O)[O-])c(NCC(=O)O)n2)c1`, the cell number change was 121%. In addition, the AC50 under setting [1] is 25.9 µM [rising, single point]. Moreover, the AC50 under setting [2] is 29.1 µM [rising, single point].

With `Cc1ccc(C(=O)CC2C(=O)N(c3ccccc3)C(=S)N2c2ccccc2)cc1` (stereo unspecified), the cell number change came out at 6.31%. Moreover, under setting [2], the AC50 is 29.1 µM [falling, single point].

`NNC(=O)/C(=C\c1ccco1)NC(=O)c1ccco1`: under setting [1], the AC50 is 0.116 µM [falling, full curve].

With `CC(=O)Nc1cccc(NC(=O)CSc2nnnn2-c2ccc3c(c2)OCO3)c1`, the cell number change amounted to 14.7%. In addition, under setting [2], the AC50 is 5.8 µM [rising, single point].

With `COC(=O)c1c(C)oc2ccc(N(C(=O)c3ccncc3)S(=O)(=O)c3ccc4ccccc4c3)cc12`, the cell number change is -26%.

On to `COc1cc([N+](=O)[O-])ccc1NC(=O)CCN1C(=O)C2C3CCC(C3)C2C1=O` (stereo unspecified), for which the cell number change amounted to 8.36%. Besides, the AC50 under setting [2] was 29.1 µM [rising, single point].

Turning to `Cc1ccccc1NC(=O)CN(C)S(=O)(=O)c1cccs1`, the cell number change was 5.86%. Besides, the concentration at half-maximal activity (AC50) under setting [2] was 29.1 µM [rising, single point].

As to `Cc1ccc(OCCCCN(C)Cc2ccccc2)c(Br)c1`, the cell number change was -27.8%. Further, the AC50 under setting [2] is 0.231 µM [falling, full curve, poor fit].

As for `c1ccc(-c2cc3c(-n4cccc4)ncnc3o2)cc1`, the cell number change is -39.1%. In addition, the half-maximal activity concentration (AC50) under setting [1] was 10.3 µM [falling, partial curve]. Besides, the AC50 under setting [2] is 16.4 µM [falling, partial curve, poor fit].

For `COC(=O)C1=C(O)CSC1=Nc1ccc(C)cc1`, the concentration at half-maximal activity (AC50) under setting [2] was 16.4 µM [rising, partial curve].

As to `Fc1ccccc1NC(=S)NN(Cc1ccccc1)c1ccccc1`, the cell number change amounted to 46.6%. The AC50 under setting [1] was 8.2 µM [rising, partial curve, poor fit]. The AC50 under setting [2] was 7.31 µM [falling, single point].

On to `Cc1csc2ncnc(N3CCN(C(=S)Nc4ccc(C(F)(F)F)cc4)CC3)c12`, for which the cell number change was 13.1%. In addition, under setting [1], the AC50 is 1.3 µM [rising, partial curve, poor fit]. Moreover, the concentration at half-maximal activity (AC50) under setting [2] was 4.61 µM [rising, partial curve, poor fit].

As to `Fc1ccc(Cn2cnc3ccccc32)cc1`, the AC50 under setting [2] was 0.326 µM [falling, single point].

In the case of `CCN(CC)S(=O)(=O)c1ccc2c(c1)c(=O)c(C(=O)N1CCc3ccccc3C1)cn2C`, the cell number change is -24.3%. Also, the AC50 under setting [2] is 7.31 µM [rising, partial curve].

In the case of `N=c1cc(C2(O)CCCCC2)n2c(nc3ccccc32)s1`, the cell number change came out at 3.06%. Also, under setting [2], the AC50 is 0.731 µM [falling, single point].

In the case of `O=C1CCC(=O)N1CNc1cccnc1`, the cell number change is -14.6%. Moreover, the AC50 under setting [2] is 0.231 µM [falling, full curve, poor fit].

With `CCc1nnc(SCC(=O)Nc2ccccc2)nc1CC`, the cell number change came to 26.6%. In addition, under setting [1], the AC50 was 0.731 µM [rising, full curve, poor fit]. Also, the AC50 under setting [2] is 2.06 µM [rising, full curve, poor fit].

Consider `Cc1ccn(-c2ccc(NC(=O)c3cccs3)cc2)n1`, for which the cell number change was -21.1%.

Consider `CCOc1ccc(N2CC(NS(=O)(=O)c3cccnc3)CC2=O)cc1` (stereo unspecified), for which the cell number change was 58.1%. The AC50 under setting [1] was 9.2 µM [rising, partial curve]. The AC50 under setting [2] was 1.64 µM [rising, partial curve].

Turning to `Cc1ccc(NC(=O)c2cncc(Br)c2)c(O)c1`, the cell number change is -36.9%. In addition, under setting [1], the AC50 is 18.4 µM [falling, partial curve].

Consider `O=C(N/N=C/c1cc2c(cc1Br)OCO2)C1COc2ccccc2O1` (stereo unspecified), for which the cell number change was 33.5%. Under setting [1], the AC50 was 0.58 µM [rising, full curve]. Moreover, under setting [2], the AC50 is 0.92 µM [rising, full curve].

For the compound `COc1ccc(NC(=O)CSc2nnc(-c3ccncc3)o2)c([N+](=O)[O-])c1`, the cell number change turned out to be 8.84%. The AC50 under setting [2] was 0.092 µM [rising, full curve, poor fit].

`CC(NC(=O)c1ccc(CS(C)(=O)=O)cc1)c1cccc2ccccc12` (stereo unspecified): the cell number change was -6.67%. Besides, the AC50 under setting [2] is 29.1 µM [rising, single point].

Consider `Cc1ccc(Cc2cnc(NC(=O)C3CCCO3)s2)cc1` (stereo unspecified), for which the AC50 under setting [2] is 4.61 µM [falling, single point].

With `CCOc1ccc(CNC(=O)CCn2c(=O)oc3ccccc32)cc1OC`, the cell number change was 3%. Further, the AC50 under setting [2] was 20.6 µM [rising, single point].

Turning to `CCCOc1c(Br)cc(C2C3=C(CCCC3=O)N(C)C3=C2C(=O)CCC3)cc1OC`, the cell number change worked out at 42.7%. Further, the AC50 under setting [1] is 8.2 µM [rising, partial curve, poor fit]. For the same compound, under setting [2], the AC50 is 14.6 µM [rising, partial curve].

`O=C(NCCCNC(=O)c1cncc(O)c1)c1cncc(O)c1`: the cell number change is -24%. Moreover, the AC50 under setting [2] was 1.03 µM [falling, full curve].

Take `Cc1ccc(-c2csc(NC(=O)C[n+]3cc(-c4ccc(C)cc4)n4c3CCC4)n2)cc1`: the cell number change is -67.3%. Also, the AC50 under setting [1] was 23.1 µM [falling, single point].

Turning to `CCOC(=O)c1c(C)[nH]c(C(=O)CSc2nnc(-c3ccncc3)n2CC)c1C`, the cell number change stood at 8.99%. Also, the half-maximal activity concentration (AC50) under setting [2] was 1.3 µM [rising, full curve].

Turning to `NC(=O)c1ccsc1NC(=O)COC(=O)c1ccccc1NCc1ccco1`, the cell number change was -26.8%.

On to `COc1ccc(N2CCn3c2nc2c3c(=O)n(CCCc3ccccc3)c(=O)n2C)c(OC)c1`, for which the cell number change was -23.2%. Further, the AC50 under setting [2] is 1.46 µM [rising, full curve, poor fit].

For `Cc1c(CC(=O)N2CCC(C(N)=O)CC2)c(=O)oc2cc3c(cc12)CCC1(CCCCC1)O3`, the concentration at half-maximal activity (AC50) under setting [2] is 14.6 µM [falling, partial curve].

On to `CCN(CC)c1ccc(C=NCCc2ccc(S(N)(=O)=O)cc2)cc1`, for which the AC50 under setting [2] was 2.91 µM [falling, single point].

For the compound `COc1ccccc1-c1noc2ncnc(Nc3ccc4c(c3)OCO4)c12`, the cell number change was found to be 3.24%. Under setting [2], the AC50 was 29.1 µM [rising, single point].

In the case of `CCOc1cccc(C(=O)Nc2ccccc2C(=O)N2CCN(C)CC2)c1`, the cell number change was found to be 0.495%. Moreover, the AC50 under setting [2] was 29.1 µM [rising, single point].

Take `CCOC(=O)C(=CNc1ccc2c(c1)nnn2-c1ccc(Cl)cc1)C(=O)OCC`: the cell number change amounted to 45.3%. The concentration at half-maximal activity (AC50) under setting [1] was 0.116 µM [rising, full curve, poor fit].

On to `COc1ccc(CNS(=O)(=O)c2ccc3c(c2)CCN3C(=O)C2CCC2)cc1`, for which the cell number change is -5.11%. Under setting [2], the AC50 is 20.6 µM [rising, single point].

Turning to `CCCn1c(N)c(C(=O)CN2CCN(S(=O)(=O)c3cccs3)CC2)c(=O)[nH]c1=O`, the cell number change came to 10.9%.

Consider `C=CCn1c(SCC(=O)c2[nH]c(C)c(C(=O)OC)c2C)nc2scc(-c3ccc(OC)c(OC)c3)c2c1=O`, for which the cell number change is 8.94%. Moreover, under setting [1], the AC50 is 6.51 µM [falling, single point].

On to `COC(=O)C1CCN(c2cc(Cl)nc(N)n2)CC1`, for which the cell number change is -4.56%.

With `Nc1nonc1NN=C1CCCCC1`, the cell number change is -4.7%.

For the compound `CCOC(=O)N1CCN(C(=O)c2ccc(NS(=O)(=O)c3ccc(F)cc3)cc2)CC1`, under setting [2], the AC50 was 2.31 µM [rising, partial curve].

Take `COc1cc2c(cc1NC(=O)Nc1ccc(F)cc1)oc1ccccc12`: the cell number change was 53.1%. For the same compound, the AC50 under setting [1] is 32.6 µM [rising, single point]. Also, the AC50 under setting [2] is 16.4 µM [rising, single point].

Consider `COc1ccc(-c2cc(C)nc3c(-c4ccccc4)cnn23)cc1`, for which the cell number change came out at 10.2%. The half-maximal activity concentration (AC50) under setting [1] was 0.0206 µM [rising, full curve, poor fit].

On to `O=S(=O)(c1ccc(-c2csc(Nc3ccc(Br)cc3)n2)cc1)N1CCCC1`, for which the cell number change was -18.2%. The AC50 under setting [2] is 2.31 µM [falling, full curve].

Regarding `CC(C)c1c(C(=O)N/N=C/c2c[nH]c3ccccc23)nnn1-c1nonc1N`, the cell number change is -23.3%. The AC50 under setting [1] is 2.59 µM [falling, single point]. In addition, the AC50 under setting [2] was 6.51 µM [falling, single point].

With `CCCC(=O)Nc1cc(C)c(NC(=O)c2cccs2)cn1`, the cell number change worked out at 40%. In addition, under setting [1], the AC50 was 14.6 µM [rising, partial curve, poor fit].

`CC(C)c1ccc(OCc2nc(-c3ccccn3)no2)c(Br)c1`: the cell number change was found to be 33.7%. Further, the AC50 under setting [1] was 18.4 µM [rising, single point].

As to `COc1ccc(S(=O)(=O)NC(Cc2cnc[nH]2)C(=O)O)cc1` (stereo unspecified), the cell number change came out at 4.04%. For the same compound, under setting [2], the AC50 is 0.731 µM [falling, full curve, poor fit].

As to `CCCCN(CC(=O)NC1CC1)S(=O)(=O)c1ccc(OCC)cc1`, the cell number change turned out to be 20.3%. In addition, the AC50 under setting [2] is 10.3 µM [rising, single point].

Consider `CC(=O)c1cccc(NC(=O)N2C3CCC2CC(NC(=O)C2CC2)C3)c1` (stereo unspecified), for which the cell number change was -8.54%. Further, the AC50 under setting [2] was 29.1 µM [falling, single point].

As to `Cc1c(C(=O)N2CCCC2)sc(NC(=O)c2cccc(Cl)c2)c1C#N`, the cell number change was -19.2%.

In the case of `COc1ccc(OCCC(=O)OCC(=O)NC(=O)NC(C)(C)C)cc1`, the cell number change was -5.7%.

Turning to `CCCn1nnc2c(=O)oc3ccccc3c21`, the cell number change was -11.3%. In addition, the AC50 under setting [2] was 0.146 µM [falling, full curve, poor fit].

`CCCn1c2ccccc2c2cnn(CC(=O)N3CCN(C4CCCCC4)CC3)c(=O)c21`: the cell number change was determined as 51.4%. Besides, under setting [1], the AC50 is 7.31 µM [rising, partial curve, poor fit]. Also, the AC50 under setting [2] is 29.1 µM [rising, single point].

As for `COc1cc(NC(=O)CSCC(=O)Nc2cccc(C(F)(F)F)c2)c(Cl)cc1Cl`, the cell number change was -62.1%. Also, the AC50 under setting [1] was 25.9 µM [falling, partial curve]. Moreover, the AC50 under setting [2] was 0.731 µM [falling, single point].

What is called AC50 is the concentration at which the activity in the assay is half-maximal. A lower AC50 goes with activity at low concentration.
